Literature values, collected in US4115569A, “Cyclic diamine derivatives” (Hoechst Aktiengesellschaft, priority 1971, dated 1978).
At least one compound was matched to its structure with a doubt left.

System: dicroecenium lanceatum
Conditions: in vivo; cited from earlier work

CN1CCN(C(=O)CC(c2ccc(Cl)cc2)(c2ccc(Cl)cc2)c2ccc(Cl)cc2)CC1 [methyl-4-(β,β,β-tris-(4-chlorophenyl)-propionyl)piperazine]
use against infections of dicroecenium lanceatum: against infections of dicroecenium lanceatum
